No constants are given. Whether binding was seen depends on the method and setting. In cells and extracts the contact can be indirect. Binding calls can cover weak binding; strength is not graded here.
Columns and labels:
[1] = target: GFP-tagged gametocyte exported protein 7 (GEXP07)/CX3CL1-binding protein 2 (CBP2) (Plasmodium falciparum 3D7) (UniProt Q8IEJ0); experiment: co-IP; GFP-Trap IP from infected RBCs solubilised in 1% Triton X-100; SDS-PAGE and Western blot probed with anti-MAHRP1; input loading 4% of the pellet loading
[2] = target: GFP-tagged GEXP10/CX3CL1-binding protein 1 (CBP1) (Plasmodium falciparum 3D7) (UniProt Q8I2D9); experiment: as above

Amino acid sequences for entries named in this document (tags omitted). A change or cut given only in a name is not applied to a line headed by its entry.
UniProt Q8IEJ0: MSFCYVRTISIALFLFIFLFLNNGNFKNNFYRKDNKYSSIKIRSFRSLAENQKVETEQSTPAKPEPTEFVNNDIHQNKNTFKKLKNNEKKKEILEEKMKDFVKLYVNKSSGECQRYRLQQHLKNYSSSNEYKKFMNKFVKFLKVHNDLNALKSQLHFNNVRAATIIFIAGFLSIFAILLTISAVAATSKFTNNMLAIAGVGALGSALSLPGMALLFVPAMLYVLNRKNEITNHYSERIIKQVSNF
UniProt Q8I2D9: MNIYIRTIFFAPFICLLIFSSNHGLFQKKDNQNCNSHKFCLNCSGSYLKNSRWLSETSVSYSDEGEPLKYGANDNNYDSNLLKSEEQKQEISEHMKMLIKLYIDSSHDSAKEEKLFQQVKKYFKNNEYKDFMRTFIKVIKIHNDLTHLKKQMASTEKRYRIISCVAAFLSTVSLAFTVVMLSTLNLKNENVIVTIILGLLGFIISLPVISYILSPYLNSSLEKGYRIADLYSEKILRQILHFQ
UniProt Q6V0W7: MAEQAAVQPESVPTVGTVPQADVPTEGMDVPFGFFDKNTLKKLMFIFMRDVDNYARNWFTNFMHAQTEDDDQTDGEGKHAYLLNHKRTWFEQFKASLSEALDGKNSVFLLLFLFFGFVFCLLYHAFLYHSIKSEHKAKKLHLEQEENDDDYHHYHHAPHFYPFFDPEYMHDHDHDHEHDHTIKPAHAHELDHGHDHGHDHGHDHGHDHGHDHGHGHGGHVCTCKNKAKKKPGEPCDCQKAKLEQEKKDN

## membrane-associated histidine-rich protein 1 (MAHRP1) (from UniProt Q6V0W7 1-249)
[1]
  binding: binds
[2]
  binding: binds
